Structures are written as SMILES. Counter-ions that a name gives are not always drawn. The whole screen tested about 5,300 compounds, of which about 130 (2.5%) showed an effect of 50% or more. Some of the results follow.

This experiment relates to M. mycetomatis strain mm55. The following applies: primary screen, metabolic activity vs growth control; 96 h, 2 µM; inhibitor.
Consider `Nc1nc2c(ncn2CCC(CO)CO)c(=O)[nH]1` [ONC0004184, penciclovir], for which the “% viability” value amounted to 55.12%. As to `CCCOc1ccc(C(=O)OCCN(CC)CC)cc1N` [ONC0004850, proparacaine hcl], the “% viability” value is recorded as 112.8%. In the case of `CCOC(=O)[C@H](Cc1ccccc1)NC(=O)c1cc(Cl)c(OCCN2CCN(C)CC2)c(Cl)c1O` [ONC0000249, jte607], the “% viability” value was 72.89%. With `Cc1cc(C)c(S(=O)(=O)Nc2cccc(C(F)(F)F)c2)c(C)c1` [ONC0001400, m3m3fbs] the figure was 100.9%. As for `CCN(CC)CCOCCOC(=O)C(CC)(CC)c1ccccc1` [ONC0003992, oxelaidin citrate], the “% viability” value was found to be 89.02%.

Take `FC(F)(F)c1cccc(C2=CCN(CCc3ccc4ccccc4c3)CC2)c1` [ONC0001253, xaliproden]: the “% viability” value was 100.2%. With `O=C(CCCS)NC1CCN(C(=O)COc2ccc(Cl)cc2Cl)CC1` [ONC0005166, krasg12c inhibitor 6] the figure was 98.75%.

For `CC(=O)OCC(=O)[C@@]1(OC(C)=O)[C@@H](C)C[C@H]2[C@@H]3C[C@H](F)C4=CC(=O)C=C[C@]4(C)[C@@]3(F)[C@@H](O)C[C@@]21C` [ONC0003433, diflorasone diacetate], the “% viability” value was found to be 66.72%. As for `O=c1ccc2[nH]cc(C3=CCNCC3)c2[nH]1` [ONC0001485, cp93129], the “% viability” value is 69.11%. With `CCC(=O)O[C@@H]1CC(=O)O[C@H](C)C/C=C/C=C/[C@H](OC(C)=O)[C@H](C)C[C@H](CC=O)[C@H](O[C@@H]2O[C@H](C)[C@@H](O[C@H]3C[C@@](C)(OC(C)=O)[C@@H](OC(=O)CC)[C@H](C)O3)[C@H](N(C)C)[C@H]2O)[C@H]1OC` [ONC0000277, midecamycin acetate] the figure was 81.75%; with `CC1=C(/C=C/C(=C/C=C/C(C)=C/C(=O)O)c2ccc(C)cc2)C(C)(C)CCC1` [ONC0003076, sr11302], 63.44%; with `O=C(NCCN1CCCCC1)c1ccc(I)cc1` [ONC0002639, n2piperidinylaminoethyl4iodobenzamide], 95.31%.

In the case of `CC1(C)Oc2ccc(C#N)cc2[C@@H](N2CCCC2=O)[C@@H]1O.CC1(C)Oc2ccc(C#N)cc2[C@H](N2CCCC2=O)[C@H]1O` [ONC0001708, levcromakalim], the “% viability” value is reported as 57.98%.

For the molecule `CC(C)C[C@H](NC(=O)CNC(=O)c1cc(Cl)ccc1Cl)B1OC(=O)C(CC(=O)O)(CC(=O)O)O1` [ONC0000714, ixazomib citrate], the “% viability” value was 66.66%. Regarding `CC[C@@H](CO)NCCN[C@@H](CC)CO` [ONC0000706, ethambutol hydrochloride], the “% viability” value was determined as 87.95%. With `C=CCN1CC[C@]23CCCC[C@H]2[C@H]1Cc1ccc(O)cc13` [ONC0002007, levallorphan tartrate] the figure was 94.62%; with `C[C@]1(Cn2ccnn2)[C@H](C(=O)O)N2C(=O)C[C@H]2S1(=O)=O` [ONC0004112, tazobactam], 92.99%. With `CC(CN(C)C)C(C)(O)Cc1ccc(Cl)cc1` (stereo not shown) [ONC0002346, clobutinol] the figure was 81.15%.

On to `CCN(CC)CCCCNc1ncc2cc(-c3cc(OC)cc(OC)c3)c(NC(=O)NC(C)(C)C)nc2n1` [ONC0004651, pd173074], for which the “% viability” value amounted to 82.26%. For the molecule `Nc1ncnc2c1c(COc1cccc(Cl)c1)nn2C1CCOCC1` [ONC0002547, pf4800567], the “% viability” value came to 64.88%. The result for `COCCOc1ccc(N2CCN(CCn3ncc4c3nc(N)n3nc(-c5ccco5)nc43)CC2)cc1` [ONC0002031, preladenant] reads 74.73%; that for `Cc1cc(-c2ccc(/N=N/c3ccc4c(S(=O)(=O)O)cc(S(=O)(=O)O)c(N)c4c3O)c(C)c2)ccc1/N=N/c1ccc2c(S(=O)(=O)O)cc(S(=O)(=O)O)c(N)c2c1O` [ONC0003296, evans blue], 49.05%. With `NC(=O)CC[C@@H]1NC(=O)[C@H](Cc2ccccc2)NC(=O)[C@H](Cc2ccc(O)cc2)NC(=O)[C@@H](N)CSSC[C@@H](C(=O)N2CCC[C@H]2C(=O)N[C@H](CCCN=C(N)N)C(=O)NCC(N)=O)NC(=O)[C@H](CC(N)=O)NC1=O` [ONC0003831, argipressine] the figure was 67.57%; with `CNC(=N)NCCC[C@H](N)C(=O)O` [ONC0003791, targinine], 61.21%. With `C/C=C/C/C=C/CCC(=O)[C@H]1O[C@H]1C(N)=O` [ONC0005470, cerulenin] the figure was 138.4%; with `CC(=O)NCCc1c[nH]c2ccccc12` [ONC0000123, nacetyltryptamine], 91.61%; with `CNC(=O)c1ccc(C)c(-n2c(C)cc(OCc3ccc(F)cc3F)c(Br)c2=O)c1` [ONC0005029, ph797804], 106%. Take `Cc1cc(OCc2nnc(SC3CCCC3)n2-c2cccnc2)ccc1-c1ccc(S(C)(=O)=O)cc1` [ONC0004377, nms873]: the “% viability” value is recorded as 158.9%.

Regarding `CCCCCCCCCCCCCCCC=O` [ONC0003839, 1hexadecanal], the “% viability” value is given as 62.25%.

Turning to `Cc1ccc(-n2nc(C(C)(C)C)cc2NC(=O)Nc2ccc(OCCN3CCOCC3)c3ccccc23)cc1` [ONC0004627, birb 796 doramapimod], the “% viability” value was 68.25%. For the molecule `CC(C)NCC(O)c1ccccc1Cl` (stereo not shown) [ONC0004642, clorprenaline hcl], the “% viability” value stood at 103.7%.

For `NC(=O)c1cccc(N)c1` [ONC0003114, 3aminobenzamide], the “% viability” value was determined as 100.4%. With `C=CCSCC1Nc2cc(Cl)c(S(N)(=O)=O)cc2S(=O)(=O)N1` (stereo not shown) [ONC0003797, althiazide] the figure was 64.29%. The result for `CCCCCCCCCCCC[N+](C)(C)CCOc1ccccc1` [ONC0004564, domiphen bromide] reads 66.51%; that for `COc1cc2nc(N3CCC(N4CCCCC4)CC3)nc(NC3CCCCCC3)c2cc1OC` [ONC0000205, c021], 61.22%. With `CNCCN(C)Cc1c[nH]nc1-c1ccc(O[C@H]2C[C@H](OCCC3CCOCC3)C2)cc1.Cl` [ONC0000962, epz020411 hydrochloride] the figure was 79.33%.

For `CC(=O)N(CC(O)CN(C(C)=O)c1c(I)c(C(=O)NCC(O)CO)c(I)c(C(=O)NCC(O)CO)c1I)c1c(I)c(C(=O)NCC(O)CO)c(I)c(C(=O)NCC(O)CO)c1I` (stereo not shown) [ONC0004142, iodixanol], the “% viability” value is 136.3%.

Source of the values: paper PMC12670160, “A drug-repurposing screen of FDA- and EMA-approved drugs identifies two NF-κB inhibitors active against eumycetoma” (Journal of Antimicrobial Chemotherapy, 2025).
